Source: paper PMC6203792, “An IL13Rα2 peptide exhibits therapeutic activity against metastatic colorectal cancer” (British Journal of Cancer, 2018)
These are yes or no findings as the source states them, for the method shown. Some binding calls cover weakened binding; strength is not graded here.

Protein sequences, listed by entry. Tags and fused reporters are not part of them. Residues count along the entry.
UniProt P35225, residues 25-146: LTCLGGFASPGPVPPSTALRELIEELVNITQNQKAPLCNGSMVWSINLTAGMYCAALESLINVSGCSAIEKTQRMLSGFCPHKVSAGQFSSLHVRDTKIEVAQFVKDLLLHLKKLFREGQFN

T1: purified IL13Rα2 ectodomain (UniProt Q14627)
T1 sequence: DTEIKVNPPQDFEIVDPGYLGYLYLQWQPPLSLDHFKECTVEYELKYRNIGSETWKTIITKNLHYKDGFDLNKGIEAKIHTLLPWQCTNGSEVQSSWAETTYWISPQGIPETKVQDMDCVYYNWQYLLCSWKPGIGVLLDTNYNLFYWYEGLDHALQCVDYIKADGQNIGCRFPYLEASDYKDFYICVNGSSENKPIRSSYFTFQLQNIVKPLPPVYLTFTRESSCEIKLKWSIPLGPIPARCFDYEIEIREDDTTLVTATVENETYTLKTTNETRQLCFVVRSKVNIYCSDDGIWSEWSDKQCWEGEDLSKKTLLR


How the values were obtained:
[1] = target: T1, purified IL13Rα2 ectodomain; test: ELISA; competition ELISA; IL13Rα2 ectodomain coated at 3 μg/mL on Maxisorp plates; IL-13 (0.3 μg/mL) and D1 peptides (1–50 µg/ml) added together, 1.5 h at room temperature; bound IL-13 detected with peroxidase-labelled anti-IL-13 antibody; both purified
[2] = target: Recombinant human IL-13 (human) (UniProt P35225); test: as above

binding [1] | binding [2] | Molecule
binds |  | Recombinant human IL-13 (from UniProt P35225 25-146) (ligand)
 | binds weakly | GSETWKTIITKN [IL13Rα2 D1 peptide]
 | binds | GSETWKTIITKN (consisting of D amino acids (all residues)) [D-D1 enantiomer peptide]
